# Source: PubChem BioAssay AID1224828 (NIAID, 2016)
# Purpose: 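Regulators linking TLR4 signalling to p65 nuclear translocation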 (primary screen)
# System: mouse RAW264.7 G9 macrophage reporter cells (GFP-p65, Tnf promoter-mCherry)
# Reagents: siRNA pool against mouse genes, 100 nM
# Timing: 2 days siRNA transfection, then 40 min LPS before fixation
# Challenge: LPS (Salmonella minnesota R595) at 10 ng/ml
# Detection: 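Imaged p65 nuclear translocation ratio, normalised to the plate median, converted to robust z-scores and averaged across two replicates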
# Direction: p65 translocation robust z-score: higher = more nuclear NF-kappaB p65 after LPS than the plate median; nuclear/cytoplasmic p65 ratio: higher = more nuclear NF-kappaB p65
# Call rule: 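Called active when z exceeds 3.3 or falls under -1.56 (median of Tlr4 controls), giving activity score of at least 50; no calls for control wells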
# Meaning of the calls: active = hit (p65 shift raised or lowered); inactive = no clear change
# Shown is a random part of about 17,000 deposited reagents. Over the whole deposit, 762 (4.5%) are marked active. 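Active calls include both raised and lowered p65 entry, mostly lowered; wells with fewer than 50 cells lack a z-score.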 Raw values vary from plate to plate and are shown uncorrected. Unmarked entries are inactive.
gene knocked down,p65 translocation robust z-score,"nuclear/cytoplasmic p65 ratio, rep 1","nuclear/cytoplasmic p65 ratio, rep 2",low cell count flag
Adcy10 (adenylate cyclase 10),-1.38,1.47,1.18,enough cells to score
Ano7 (anoctamin 7),-1.81 (active),1.43,1.37,enough cells to score
Zfp516 (zinc finger protein 516),0.74,1.44,1.72,enough cells to score
Khdrbs1,1.18,1.6,1.56,enough cells to score
Il11ra2 (interleukin 11 receptor subunit alpha 2),0.72,1.45,1.48,enough cells to score
Hdhd2 (haloacid dehalogenase-like hydrolase domain containing 2),-0.24,1.6,1.55,enough cells to score
"Cnn3 (calponin 3, acidic)",0.5,1.63,1.91,enough cells to score
Slc24a1,0.01,1.41,1.25,enough cells to score
Prss27 (serine protease 27),1.31,2.12,1.68,enough cells to score
Gzmm (granzyme M (lymphocyte met-ase 1)),-2.13 (active),1.3,1.16,enough cells to score
Aoc1l2 (amine oxidase copper containing 1-like 2),0.04,1.58,1.42,enough cells to score
Kdm5c (lysine demethylase 5C),-0.02,1.54,1.43,enough cells to score
Tspyl2 (TSPY-like 2),1.62,1.7,1.56,enough cells to score
Slc9a4,0.9,1.44,1.33,enough cells to score
"Cyp2d22 (cytochrome P450, family 2, subfamily d, polypeptide 22)",-0.67,1.34,1.33,enough cells to score
"Defa1 (defensin, alpha 1)",0.09,1.53,1.61,enough cells to score
Pirb (paired Ig-like receptor B),1.6,1.63,1.35,enough cells to score
Or8c17 (olfactory receptor family 8 subfamily C member 17),-0.44,1.32,1.27,enough cells to score
Gsg1 (germ cell associated 1),-1.22,1.46,1.37,enough cells to score
Grid2ip,-0.27,1.69,1.52,enough cells to score
Patl2 (protein associated with topoisomerase II homolog 2 (yeast)),1.69,1.46,1.33,enough cells to score
Chgb (chromogranin B),-0.3,1.43,1.33,enough cells to score
"Abca13 (ATP-binding cassette, sub-family A member 13)",1.25,1.62,1.7,enough cells to score
Paqr9 (progestin and adipoQ receptor family member IX),-1,1.31,1.25,enough cells to score

Sorted by “nuclear/cytoplasmic p65 ratio, rep 2” (ascending): some entries from above
gene knocked down,p65 translocation robust z-score,"nuclear/cytoplasmic p65 ratio, rep 1","nuclear/cytoplasmic p65 ratio, rep 2",low cell count flag
Ano7 (anoctamin 7),-1.81 (active),1.43,1.37,enough cells to score
Il11ra2 (interleukin 11 receptor subunit alpha 2),0.72,1.45,1.48,enough cells to score
Khdrbs1,1.18,1.6,1.56,enough cells to score
Zfp516 (zinc finger protein 516),0.74,1.44,1.72,enough cells to score
